In article PMC10347873:
Results are given in words; binding and its absence hold for the method and conditions named. Binding seen in cells or lysates may run through a third protein. Some entries that bind do so weakly or less than the wild type.

Chains of the proteins cited; added tags and fusions are not shown. Residues count along the entry.
UniProt P16070, residues 21-742: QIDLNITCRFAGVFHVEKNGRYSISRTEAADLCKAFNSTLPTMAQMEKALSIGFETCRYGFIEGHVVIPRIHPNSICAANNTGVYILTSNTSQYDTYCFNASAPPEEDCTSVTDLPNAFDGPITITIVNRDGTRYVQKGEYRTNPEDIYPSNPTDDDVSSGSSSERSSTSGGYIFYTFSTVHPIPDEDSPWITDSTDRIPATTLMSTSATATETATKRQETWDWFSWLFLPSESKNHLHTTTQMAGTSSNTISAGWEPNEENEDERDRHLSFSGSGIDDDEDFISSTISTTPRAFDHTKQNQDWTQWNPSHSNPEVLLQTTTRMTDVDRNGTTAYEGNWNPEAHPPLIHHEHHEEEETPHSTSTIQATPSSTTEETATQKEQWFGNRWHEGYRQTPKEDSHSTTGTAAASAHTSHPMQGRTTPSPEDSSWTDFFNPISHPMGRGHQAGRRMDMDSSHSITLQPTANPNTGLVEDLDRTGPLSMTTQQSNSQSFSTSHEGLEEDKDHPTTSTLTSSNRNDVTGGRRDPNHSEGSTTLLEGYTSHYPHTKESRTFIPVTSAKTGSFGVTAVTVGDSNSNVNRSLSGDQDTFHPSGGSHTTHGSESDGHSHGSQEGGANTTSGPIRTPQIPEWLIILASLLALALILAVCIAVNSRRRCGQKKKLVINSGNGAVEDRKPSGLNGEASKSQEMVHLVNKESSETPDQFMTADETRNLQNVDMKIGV
UniProt O95398: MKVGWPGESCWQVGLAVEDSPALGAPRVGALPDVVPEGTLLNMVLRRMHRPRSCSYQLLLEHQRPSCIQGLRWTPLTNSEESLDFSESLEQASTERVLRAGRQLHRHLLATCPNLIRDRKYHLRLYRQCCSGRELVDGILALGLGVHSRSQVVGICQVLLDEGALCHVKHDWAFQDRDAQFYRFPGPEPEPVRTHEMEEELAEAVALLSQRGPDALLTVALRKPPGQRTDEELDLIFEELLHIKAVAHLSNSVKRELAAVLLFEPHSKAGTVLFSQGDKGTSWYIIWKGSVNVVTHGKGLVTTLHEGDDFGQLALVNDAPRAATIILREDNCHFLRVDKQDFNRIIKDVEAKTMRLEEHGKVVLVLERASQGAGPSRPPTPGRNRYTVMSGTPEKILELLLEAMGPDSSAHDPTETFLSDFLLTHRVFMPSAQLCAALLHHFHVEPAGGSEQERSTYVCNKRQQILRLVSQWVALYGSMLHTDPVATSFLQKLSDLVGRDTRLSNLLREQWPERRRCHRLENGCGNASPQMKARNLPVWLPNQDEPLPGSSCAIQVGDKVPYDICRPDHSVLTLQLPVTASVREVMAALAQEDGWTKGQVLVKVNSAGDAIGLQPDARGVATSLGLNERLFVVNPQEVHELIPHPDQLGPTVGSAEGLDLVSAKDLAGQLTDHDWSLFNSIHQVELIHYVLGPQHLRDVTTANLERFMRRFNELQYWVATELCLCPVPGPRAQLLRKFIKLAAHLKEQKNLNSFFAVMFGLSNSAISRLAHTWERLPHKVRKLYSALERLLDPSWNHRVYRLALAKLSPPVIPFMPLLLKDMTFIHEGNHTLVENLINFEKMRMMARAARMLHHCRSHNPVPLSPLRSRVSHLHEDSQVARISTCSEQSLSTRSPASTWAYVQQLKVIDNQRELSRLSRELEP
UniProt Q8VCC8: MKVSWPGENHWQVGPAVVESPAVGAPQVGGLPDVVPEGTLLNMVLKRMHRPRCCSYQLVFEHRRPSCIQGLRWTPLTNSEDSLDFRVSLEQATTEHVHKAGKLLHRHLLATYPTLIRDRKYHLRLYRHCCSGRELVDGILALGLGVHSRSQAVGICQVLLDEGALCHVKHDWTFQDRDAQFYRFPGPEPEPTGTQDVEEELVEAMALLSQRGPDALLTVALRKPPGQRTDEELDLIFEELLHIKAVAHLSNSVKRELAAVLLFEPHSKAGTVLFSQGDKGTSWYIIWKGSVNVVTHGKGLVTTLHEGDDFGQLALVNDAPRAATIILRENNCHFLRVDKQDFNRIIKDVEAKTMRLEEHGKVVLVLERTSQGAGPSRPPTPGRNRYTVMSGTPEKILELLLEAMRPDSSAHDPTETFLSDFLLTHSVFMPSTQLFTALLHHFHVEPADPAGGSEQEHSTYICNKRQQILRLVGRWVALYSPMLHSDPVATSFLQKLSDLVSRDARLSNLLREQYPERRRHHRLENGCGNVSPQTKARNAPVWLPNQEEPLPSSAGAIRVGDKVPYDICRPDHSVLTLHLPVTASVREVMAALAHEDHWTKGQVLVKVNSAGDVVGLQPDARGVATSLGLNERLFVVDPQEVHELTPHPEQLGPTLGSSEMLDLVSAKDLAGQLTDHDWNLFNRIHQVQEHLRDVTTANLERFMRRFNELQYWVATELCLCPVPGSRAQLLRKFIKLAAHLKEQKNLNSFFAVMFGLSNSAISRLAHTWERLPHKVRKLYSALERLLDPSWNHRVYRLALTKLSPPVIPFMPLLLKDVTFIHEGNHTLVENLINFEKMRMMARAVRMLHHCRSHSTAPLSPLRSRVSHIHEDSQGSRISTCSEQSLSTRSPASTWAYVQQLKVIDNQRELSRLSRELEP
UniProt Q9EQZ6: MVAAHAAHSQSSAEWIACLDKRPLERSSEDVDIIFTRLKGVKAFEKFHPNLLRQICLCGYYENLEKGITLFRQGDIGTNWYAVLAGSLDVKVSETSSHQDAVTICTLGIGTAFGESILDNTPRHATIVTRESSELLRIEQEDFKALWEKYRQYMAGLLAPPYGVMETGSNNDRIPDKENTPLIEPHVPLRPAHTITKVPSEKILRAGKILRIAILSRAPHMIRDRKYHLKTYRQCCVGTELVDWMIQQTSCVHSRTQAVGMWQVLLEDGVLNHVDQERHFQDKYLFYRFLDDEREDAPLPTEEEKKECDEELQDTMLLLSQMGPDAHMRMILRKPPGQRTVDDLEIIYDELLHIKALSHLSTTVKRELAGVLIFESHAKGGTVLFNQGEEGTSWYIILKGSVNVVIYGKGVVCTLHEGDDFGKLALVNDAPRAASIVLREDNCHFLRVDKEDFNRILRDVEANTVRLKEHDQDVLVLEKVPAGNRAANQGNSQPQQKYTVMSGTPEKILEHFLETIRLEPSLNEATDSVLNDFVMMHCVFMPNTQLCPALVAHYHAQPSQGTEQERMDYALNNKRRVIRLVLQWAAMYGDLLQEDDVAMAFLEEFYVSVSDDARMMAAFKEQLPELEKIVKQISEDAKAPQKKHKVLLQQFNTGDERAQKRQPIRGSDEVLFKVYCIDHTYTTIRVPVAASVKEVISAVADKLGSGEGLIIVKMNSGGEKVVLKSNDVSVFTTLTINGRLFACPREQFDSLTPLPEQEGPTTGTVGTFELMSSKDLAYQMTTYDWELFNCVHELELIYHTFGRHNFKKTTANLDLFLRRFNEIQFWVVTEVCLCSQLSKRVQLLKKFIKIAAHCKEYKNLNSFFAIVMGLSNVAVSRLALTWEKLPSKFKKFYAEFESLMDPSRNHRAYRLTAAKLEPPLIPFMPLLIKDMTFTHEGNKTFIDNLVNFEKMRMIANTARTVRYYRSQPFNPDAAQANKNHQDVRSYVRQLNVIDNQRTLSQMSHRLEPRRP

Experiments:
[1] = molecular target: CD44 (human) (human (endogenous in left ventricle tissue)) (UniProt P16070); experiment: co-IP; lysates of human left ventricle tissue immunoprecipitated with anti-CD44 antibodies, reblotted with anti-Epac 1/2 or anti-CD44; patients with preserved (LVEF > 60%) or compromised (LVEF < 50%) LV contractility
[2] = molecular target: T1, CD44 (mouse (endogenous in mouse ventricle and HL-1 myocytes)) (UniProt P15379); experiment: proximity ligation; in situ in HL-1 myocytes, confocal images; cells treated with osteopontin, isoproterenol or 8-CPT-cAMP
T1 sequence: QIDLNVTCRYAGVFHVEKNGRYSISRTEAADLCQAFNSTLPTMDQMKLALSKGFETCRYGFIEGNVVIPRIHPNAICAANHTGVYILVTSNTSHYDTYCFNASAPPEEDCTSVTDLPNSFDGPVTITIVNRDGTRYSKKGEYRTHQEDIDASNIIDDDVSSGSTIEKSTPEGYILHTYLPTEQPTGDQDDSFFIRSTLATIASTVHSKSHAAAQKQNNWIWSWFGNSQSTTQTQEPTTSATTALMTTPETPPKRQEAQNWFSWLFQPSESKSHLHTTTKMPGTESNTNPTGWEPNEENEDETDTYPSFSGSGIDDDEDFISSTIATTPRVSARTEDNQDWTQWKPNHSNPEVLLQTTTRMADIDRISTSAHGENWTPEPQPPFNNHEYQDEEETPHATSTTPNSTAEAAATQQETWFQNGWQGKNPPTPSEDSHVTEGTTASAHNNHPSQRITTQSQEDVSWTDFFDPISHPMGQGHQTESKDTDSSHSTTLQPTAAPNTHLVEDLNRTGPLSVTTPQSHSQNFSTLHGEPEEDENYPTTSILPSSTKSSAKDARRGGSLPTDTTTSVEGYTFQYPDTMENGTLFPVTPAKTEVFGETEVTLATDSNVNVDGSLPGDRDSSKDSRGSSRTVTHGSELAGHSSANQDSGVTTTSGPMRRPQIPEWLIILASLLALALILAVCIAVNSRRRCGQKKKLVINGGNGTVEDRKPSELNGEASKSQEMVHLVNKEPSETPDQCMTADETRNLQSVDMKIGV

[3] = molecular target: T1, CD44 (mouse (endogenous in mouse ventricle and HL-1 myocytes)); experiment: co-IP; lysates of mouse ventricle tissue immunoprecipitated with anti-CD44 antibodies, reblotted with anti-Epac 1/2, anti-PKAc, anti-PKAIIα or anti-CD44; wild-type mice given isoproterenol 30 mg/kg per day subcutaneously for 48 h or 15 days (PKA subunits: with or without isoproterenol)
[4] = molecular target: T1, CD44 (mouse (endogenous in mouse ventricle and HL-1 myocytes)); experiment: co-IP; lysates of mouse ventricle tissue immunoprecipitated with anti-CD44 antibodies, reblotted with anti-Epac1; wild-type mice without isoproterenol
[5] = molecular target: T1, CD44 (mouse (endogenous in mouse ventricle and HL-1 myocytes)); experiment: co-IP; HL-1 myocyte lysates immunoprecipitated with anti-CD44 antibodies, reblotted with anti-Epac1/2, anti-PKAIIα, anti-PKAc and anti-CD44; reverse with anti-Epac1/Epac2, anti-PKAIIα and anti-PKAc; cells treated with osteopontin (100 ng/mL), isoproterenol (10 µmol/L) or 8-CPT-cAMP (100 µmol/L) for 24 h

Row | binding [1] | binding [2] | binding [3] | binding [4] | binding [5] | Substance
1 | binds |  |  |  |  | Epac1 (human) (from UniProt O95398 1-923)
2 |  | binds | binds | binds weakly | binds | exchange protein directly activated by cAMP 1 (Epac1) (from UniProt Q8VCC8 1-918)
3 |  |  | binds weakly |  | binds weakly | exchange protein directly activated by cAMP 2 (Epac2) (from UniProt Q9EQZ6 1-1011)
